Values of other authors as cited in US20240216338A1, “NEW FORMULATIONS AND USES” (ALZECURE PHARMA AB, priority 2021, published 2024).
For at least one compound, name, drawing or mass did not settle the structure.

Legend:
healthy volunteers [1] = conditions: Celecoxib 200 mg (oral); difference from placebo; Schaffler et al. (2017); cited from earlier work
healthy volunteers [2] = conditions: Celecoxib 200 mg (oral); difference from placebo; Schaffler et al. (2017); cited from earlier work; remark: listed apart in the source

Structure (SMILES): Cc1ccc(-c2cc(C(F)(F)F)nn2-c2ccc(S(N)(=O)=O)cc2)cc1 [Celecoxib]
- PtP Mean Difference (healthy volunteers [1]): 0.1 μV
- VAS Mean Difference (healthy volunteers [2]): 2.9 mm
